This passage reports binding results from doi:10.1101/2020.06.04.134924.

These are yes or no findings as the source states them, for the method shown. In cells and extracts the contact can be indirect. Binding calls can cover weak binding; strength is not graded here. Where a sequence is shown, tags or fusion partners need not be part of it.

The assay has as its target T1, Recombinant GST-hSLP4A (human) (UniProt Q96C24).
T1 sequence: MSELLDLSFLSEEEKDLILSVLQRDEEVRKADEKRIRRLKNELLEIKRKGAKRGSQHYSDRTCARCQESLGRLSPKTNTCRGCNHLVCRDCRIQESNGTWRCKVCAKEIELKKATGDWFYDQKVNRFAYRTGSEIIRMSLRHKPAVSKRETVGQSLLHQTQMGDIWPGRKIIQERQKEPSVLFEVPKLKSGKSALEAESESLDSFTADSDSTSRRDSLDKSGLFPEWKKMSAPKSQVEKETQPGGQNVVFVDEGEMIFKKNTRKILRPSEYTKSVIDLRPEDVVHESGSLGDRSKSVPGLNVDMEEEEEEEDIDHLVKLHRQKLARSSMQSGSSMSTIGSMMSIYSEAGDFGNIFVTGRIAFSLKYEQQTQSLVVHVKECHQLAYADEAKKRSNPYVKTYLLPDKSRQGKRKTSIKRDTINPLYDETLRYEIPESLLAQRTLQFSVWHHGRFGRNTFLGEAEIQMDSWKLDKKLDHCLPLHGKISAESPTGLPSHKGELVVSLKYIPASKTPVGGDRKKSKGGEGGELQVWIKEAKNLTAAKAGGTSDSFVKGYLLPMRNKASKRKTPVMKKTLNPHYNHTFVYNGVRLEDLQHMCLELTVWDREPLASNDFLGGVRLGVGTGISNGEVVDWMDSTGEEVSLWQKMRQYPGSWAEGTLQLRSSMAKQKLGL
Description: pull-down.

Turning to endogenous GTP-bound RAB8, the binding result was “binds”.
